PubChem BioAssay AID504791, Drosophila RNAi Screening Center, 2011
Test: 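Factors in Argonaute-based small RNA production and activity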 (primary screen). System: Drosophila S2-derived reporter cells. Reagents: long dsRNA against Drosophila genes, about 150-250 ng dsRNA per well (siRNA assay); about 80-120 ng (miRNA assay). Time to read-out: about 5 days (siRNA assay); about 4 days (miRNA assay). Conditions: copper sulfate induction of reporters: 25 µM (siRNA assay); 200 mM stated (miRNA assay), 1-2 days before reading. Measured: 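Dual luciferase assay: Renilla to firefly signal ratio in each well, scaled to the mean ratio of its plate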. Active means: 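First-pass picks had plate-scaled ratios over 1.5 for the siRNA assay, over 1.6 for the miRNA assay, or under 0.6; two distinct dsRNAs had to score alike on retest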.
The deposit covers about 23,000 reagents; below is a random part of those that have a named target and a result. Over the whole deposit, 199 (0.86%) are marked active. 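Plate-scaled ratios behind the calls are not deposited; printed light signals are raw; many rows marked increased or decreased are still called inactive.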 Reagent sequences are not shown. Not stated in the record: the direction of the score.

| predicted target | DRSC id | stable assay Renilla, run 1 (luminescence) | stable assay firefly, run 1 (luminescence) | call |
| --- | --- | --- | --- | --- |
| Hydr2 | DRSC00607 | 29779 | 2.61e5 | inactive |
| Ir60d | DRSC04218 | 5495 | 3.08e5 | inactive |
| vas (retired record) | DRSC22007 | 9910 | 6.66e5 | inactive |
| CG15745 (retired record) | DRSC19711 | 4311 | 3.51e5 | inactive |
| CG34345 | DRSC02126 | 7495 | 4.10e5 | inactive |
| ABCB7 | DRSC08603 | 7078 | 3.59e5 | inactive |
| CG12061 | DRSC20715 | 4959 | 3.20e5 | inactive |
| gol | DRSC04689 | 26864 | 1.12e6 | inactive |
| Hs2st | DRSC03348 | 16760 | 1.38e6 | inactive |
| Drgx | DRSC00278 | 6998 | 4.03e5 | inactive |
| Drgx | DRSC00537 | 7251 | 4.33e5 | inactive |
| EloB | DRSC16663 | 7860 | 3.59e5 | inactive |
| CG10445 | DRSC14247 | 7174 | 3.95e5 | inactive |
| t-Grip91 | DRSC01506 | 5259 | 3.81e5 | inactive |
| hep | DRSC19839 | 6210 | 3.61e5 | inactive |
| hep | DRSC20337 | 5511 | 3.73e5 | inactive |
| PIG-A | DRSC06982 | 8010 | 3.75e5 | inactive |
| msn | DRSC07990 | 4968 | 4.28e5 | inactive |
| msn | DRSC08498 | 5430 | 3.21e5 | inactive |
| CG7296 | DRSC03042 | 5915 | 5.03e5 | inactive |
| CG7296 | DRSC22343 | 9402 | 5.66e5 | inactive |
| CG34284 | DRSC14773 | 7267 | 4.46e5 | inactive |
| Parp1 | DRSC07725 | 6772 | 4.28e5 | inactive |
| Parp1 | DRSC07778 | 6338 | 4.01e5 | inactive |
| Parp1 | DRSC07780 | 6796 | 3.54e5 | inactive |
| Dnaaf3 | DRSC06684 | 4595 | 2.21e5 | inactive |
| Eglp4 | DRSC04438 | 6698 | 2.66e5 | inactive |
| armi | DRSC08193 | 5299 | 3.78e5 | inactive |
| CG10063 | DRSC09688 | 6600 | 4.21e5 | inactive |
| CG33333 | DRSC13233 | 3311 | 3.34e5 | inactive |
| CG34325 | DRSC19802 | 5535 | 3.77e5 | inactive |
| CG34325 | DRSC20200 | 5635 | 4.41e5 | inactive |
| Tep5Psi | DRSC02183 | 7256 | 3.51e5 | inactive |
| Tep5Psi | DRSC02184 | 6104 | 3.58e5 | inactive |

An excerpt taken from the entries so far, for reference:
| predicted target | DRSC id | stable assay Renilla, run 1 (luminescence) | stable assay firefly, run 1 (luminescence) | call |
| --- | --- | --- | --- | --- |
| CG10445 | DRSC14247 | 7174 | 3.95e5 | inactive |
| t-Grip91 | DRSC01506 | 5259 | 3.81e5 | inactive |
| hep | DRSC19839 | 6210 | 3.61e5 | inactive |
| hep | DRSC20337 | 5511 | 3.73e5 | inactive |
